Measured values: US20120079614A1
These are yes or no findings as the source states them, for the method shown. Some results given as binding are weak or reduced against the parent protein; the word gives no strength.

Amino acid sequences for entries named in this document (tags omitted). A change or cut given only in a name is not applied to a line headed by its entry. Residues count along the entry.
UniProt P01137, residues 279-390: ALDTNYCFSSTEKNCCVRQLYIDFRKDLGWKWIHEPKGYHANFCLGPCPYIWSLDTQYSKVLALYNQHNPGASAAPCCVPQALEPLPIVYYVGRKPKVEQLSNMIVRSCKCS
UniProt Q6YHK3: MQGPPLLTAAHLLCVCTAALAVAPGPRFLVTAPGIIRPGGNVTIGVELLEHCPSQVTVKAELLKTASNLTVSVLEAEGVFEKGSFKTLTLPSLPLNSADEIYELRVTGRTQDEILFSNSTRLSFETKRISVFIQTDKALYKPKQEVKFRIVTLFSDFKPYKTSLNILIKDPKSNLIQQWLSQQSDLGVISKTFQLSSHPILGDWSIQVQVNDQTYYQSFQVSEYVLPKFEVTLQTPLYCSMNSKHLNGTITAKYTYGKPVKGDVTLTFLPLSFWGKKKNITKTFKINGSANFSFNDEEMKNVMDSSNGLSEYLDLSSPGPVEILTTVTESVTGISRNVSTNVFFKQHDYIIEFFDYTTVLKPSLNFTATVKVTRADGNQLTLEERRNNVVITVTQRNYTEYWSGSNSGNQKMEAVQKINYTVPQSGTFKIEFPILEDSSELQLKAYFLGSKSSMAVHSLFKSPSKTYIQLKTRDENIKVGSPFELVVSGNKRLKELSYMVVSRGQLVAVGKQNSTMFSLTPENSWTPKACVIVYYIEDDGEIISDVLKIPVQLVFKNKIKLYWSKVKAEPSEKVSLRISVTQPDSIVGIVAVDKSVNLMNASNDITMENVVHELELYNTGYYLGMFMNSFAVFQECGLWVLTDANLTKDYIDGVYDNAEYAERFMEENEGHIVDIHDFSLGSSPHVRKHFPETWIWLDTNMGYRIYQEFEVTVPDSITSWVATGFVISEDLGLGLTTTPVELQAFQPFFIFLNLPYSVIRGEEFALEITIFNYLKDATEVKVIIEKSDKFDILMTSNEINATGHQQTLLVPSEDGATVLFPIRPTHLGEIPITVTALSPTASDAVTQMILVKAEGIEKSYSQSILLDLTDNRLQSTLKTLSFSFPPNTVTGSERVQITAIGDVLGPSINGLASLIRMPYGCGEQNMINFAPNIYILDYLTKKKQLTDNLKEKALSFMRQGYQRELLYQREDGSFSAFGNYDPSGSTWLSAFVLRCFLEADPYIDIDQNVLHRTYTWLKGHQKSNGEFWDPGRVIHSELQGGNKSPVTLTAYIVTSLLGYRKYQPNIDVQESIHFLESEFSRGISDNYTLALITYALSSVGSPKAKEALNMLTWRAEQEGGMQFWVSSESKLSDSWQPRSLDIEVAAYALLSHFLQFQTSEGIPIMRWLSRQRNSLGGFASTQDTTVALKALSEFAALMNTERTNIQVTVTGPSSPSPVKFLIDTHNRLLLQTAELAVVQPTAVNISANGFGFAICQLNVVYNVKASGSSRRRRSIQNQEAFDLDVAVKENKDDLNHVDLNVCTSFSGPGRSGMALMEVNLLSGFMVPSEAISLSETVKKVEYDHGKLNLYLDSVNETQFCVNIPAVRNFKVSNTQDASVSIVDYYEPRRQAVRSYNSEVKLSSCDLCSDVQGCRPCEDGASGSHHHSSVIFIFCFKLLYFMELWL

Tests used:
[1] = molecular target: T1, TGF-β2 (UniProt P61812); test: SPR (conclusions of Example 3)
T1 sequence (looked up): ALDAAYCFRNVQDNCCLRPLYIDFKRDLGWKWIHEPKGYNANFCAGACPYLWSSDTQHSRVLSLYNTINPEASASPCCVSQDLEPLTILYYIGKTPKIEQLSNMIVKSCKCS

[2] = molecular target: Transforming Growth Factor-β1 (TGF-β1) (UniProt P01137); test: affinity labeling with 125I-TGF-β1, SDS-PAGE and autoradiography (FIG. 11)
[3] = molecular target: Transforming Growth Factor-β1 (TGF-β1) (UniProt P01137); test: affinity cross-link labeling of media of PIPLC-treated HaCaT cells with 125I-TGF-β1, SDS-PAGE, autoradiography; competitor: unlabeled TGF-β1
[4] = molecular target: Transforming Growth Factor-β1 (TGF-β1) (UniProt P01137); test: affinity cross-link labeling with 150 pM 125I-TGF-β1, with or without excess unlabeled TGF-β1; SDS-PAGE

Substance | binding [1] | binding [2] | binding [3] | binding [4]
soluble CD109 protein (full-length recombinant CD109) (from UniProt Q6YHK3 22-1420) (receptor) | binds |  |  | 
soluble endogenous CD109 released from the keratinocyte cell surface by PIPLC (150 kDa protein) (from UniProt Q6YHK3 22-1420) (receptor) |  | binds | binds | binds
